Results taken from patent US8546322B2, “Inhibitors of intracellular urokinase plasminogen activator and methods of use thereof” (The Regents of the University of California, priority 2007, dated 2013).

Assays:
[1] = system: enkephalinase (neutral endopeptidase 24.11); experiment: LCMS enkephalinase degradation assay; type: biochemical; conditions: LCMS after incubation with enzyme
[2] = system: enkephalinase (neutral endopeptidase 24.11); conditions: Palandoken et al. 2005, cited from earlier work

| Compound | cleavage by enkephalinase (in words) [1] | cleavage by enkephalinase (in words) [2] | cleavage by enkephalinase (in words) ([2]; listed as Amiloride C(5)-Gly-Gly-Gly-Phe-Leu) |
| --- | --- | --- | --- |
| N=C(N)NC(=O)c1nc(Cl)c(NCC(=O)O)nc1N [AmC(5)Gly, amilorideC(5)-glycine-OH] | unaffected | – | – |
| CC(C)C[C@@H](NC(=O)[C@H](Cc1ccccc1)NC(=O)CNC(=O)[C@@H](C)NC(=O)CNc1nc(N)c(C(=O)NC(=N)N)nc1Cl)C(=O)O [Compound 3b, C5am-Gly-D-Ala-Gly-Phe-D-Leu-OH] (H-[X1][dA]GF[dL]-OH) | not cleaved | – | – |
| CC(C)C[C@H](NC(=O)[C@H](Cc1ccccc1)NC(=O)CNC(=O)CNC(=O)CNC(=O)CNc1nc(N)c(C(=O)NC(=N)N)nc1Cl)C(=O)O [Compound 3c, C5am-Gly-Gly-Gly-Gly-Phe-Leu-OH] (H-[X1]GGGFL-OH) | selectively cleaved | – | – |
| AmC(5)-G-G-F-L | – | not cleaved by enkephalinase | – |
| AmC(5)-G-G-G-F-L (GGGFL; amiloride C(5) conjugate; printed: Gly-Gly-Gly-Phe-Leu) | – | is cleaved by enkephalinase | generates AmC(5)-Gly |

Read-outs that look alike come from different tables or passages of the source. *1 amine or outer side, *2 acyl side, *3 side chain or, on linkers, in order; H or OH if unused. Where a SMILES comes first, the peptide text is derived from it. [ ]: non-standard residue; d: D form. X1 = N=C(N)NC(=O)c1nc(Cl)c(N(CC(=O)[*:2])[*:1])nc1N
